Results taken from patent US20100029012A1, “Method for identifying modulators of the NRF2-KEAP1-AREP pathway” (priority 2006, published 2010).
These are yes or no findings as the source states them, for the method shown. Some entries that bind do so weakly or less than the wild type.

Amino acid sequences for entries named in this document (tags omitted). Residues count along the entry.
UniProt Q14145, residues 322-609: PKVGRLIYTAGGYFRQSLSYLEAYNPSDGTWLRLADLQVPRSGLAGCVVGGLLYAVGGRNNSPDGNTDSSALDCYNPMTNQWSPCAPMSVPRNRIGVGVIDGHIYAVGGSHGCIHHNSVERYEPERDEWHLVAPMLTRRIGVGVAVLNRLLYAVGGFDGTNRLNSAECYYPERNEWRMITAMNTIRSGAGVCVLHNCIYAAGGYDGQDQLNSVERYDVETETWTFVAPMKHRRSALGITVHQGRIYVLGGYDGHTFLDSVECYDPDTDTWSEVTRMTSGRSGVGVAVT

Experiments:
[1] = biological target: T1, His-tagged Keap1-kelch domain polypeptide (Homo sapiens, UniProt Q14145); assay: antibody-based radioligand competition assay, His-tagged Keap1-kelch domain polypeptide captured by mouse anti-His antibody on anti-mouse IgG plates, 3H-labeled Peptide 2 as tracer
[2] = biological target: T1, His-tagged Keap1-kelch domain polypeptide; assay: ion-based radioligand competition assay, His-tagged Keap1-kelch domain polypeptide on nickel-coated plates, 3H-labeled Peptide 2 as tracer

QLDEETGEFLPIQ [Nrf2 Peptide 2 (unlabeled), NH2-…-OH]
binding [1]: binds
binding [2]: binds
